# The supplement of paper PMC8728848
# The list shows a part of the results.
# Experiments:
# Assay in all cases: glycan array binding signal (z-score within array); higher = stronger binding
# Settings in all cases: glycan notation: IUPAC condensed, linker removed
# [1] = biological target: Fuc(a1-2)[Gal(a1-3)]Gal(b1-4)GlcNAc(b1-2)Man(a1-3)[Fuc(a1-2)[Gal(a1-3)]Gal(b1-4)GlcNAc(b1-2)Man(a1-6)]Man(b1-4)GlcNAc(b1-4)[Fuc(a1-6)]GlcNAc
# In short: (§1)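 Glycan array data were curated from 3228 arrays in the Consortium for Functional Glycomics database and kept only where the protein sequence was available. Glycan names were converted to IUPAC-condensed notation, and columns mapping to the same glycan were averaged. The binding signal is a within-array Z-score, averaged across arrays of the same protein sequence at different concentrations or buffers and across linkers. Negative Z-scores can be read as non-binding.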
# [2] = biological target: Fuc(a1-2)[Gal(a1-3)]Gal(b1-4)GlcNAc(b1-3)GalNAc
# In short: as §1
# [3] = biological target: Fuc(a1-2)[Gal(a1-3)]Gal(b1-4)GlcNAc(b1-6)GalNAc
# In short: as §1
# [4] = biological target: Fuc(a1-2)[Gal(a1-3)]Gal(b1-4)[Fuc(a1-3)]Glc
# In short: as §1
# [5] = biological target: Fuc(a1-2)[Gal(a1-3)]Gal(b1-4)[Fuc(a1-3)]GlcNAc
# In short: as §1
# [6] = biological target: Fuc(a1-2)[Gal(a1-3)]Gal(b1-4)[Fuc(a1-3)]GlcNAc(b1-3)GalNAc
# In short: as §1
# [7] = biological target: Fuc(a1-2)[Gal(a1-4)]Gal(b1-4)GlcNAc
# In short: as §1
# [8] = biological target: Fuc(a1-2)[GalNAc(a1-3)]Gal
# In short: as §1
# [9] = biological target: Fuc(a1-2)[GalNAc(a1-3)]Gal(b1-3)GalNAc(a1-3)[Fuc(a1-2)]Gal(b1-4)GlcNAc
# In short: as §1
# [10] = biological target: Fuc(a1-2)[GalNAc(a1-3)]Gal(b1-3)GalNAc(b1-3)Gal(a1-4)Gal(b1-4)Glc
# In short: as §1
# [11] = biological target: Fuc(a1-2)[GalNAc(a1-3)]Gal(b1-3)GlcNAc
# In short: as §1
# [12] = biological target: Fuc(a1-2)[GalNAc(a1-3)]Gal(b1-3)GlcNAc(b1-2)Man(a1-3)[Fuc(a1-2)[GalNAc(a1-3)]Gal(b1-3)GlcNAc(b1-2)Man(a1-6)]Man(b1-4)GlcNAc(b1-4)GlcNAc
# In short: as §1
# [13] = biological target: Fuc(a1-2)[GalNAc(a1-3)]Gal(b1-3)GlcNAc(b1-2)Man(a1-3)[Fuc(a1-2)[GalNAc(a1-3)]Gal(b1-3)GlcNAc(b1-2)Man(a1-6)]Man(b1-4)GlcNAc(b1-4)[Fuc(a1-6)]GlcNAc
# In short: as §1
# [14] = biological target: Fuc(a1-2)[GalNAc(a1-3)]Gal(b1-3)GlcNAc(b1-3)GalNAc
# In short: as §1
# [15] = biological target: Fuc(a1-2)[GalNAc(a1-3)]Gal(b1-3)GlcNAc(b1-6)GalNAc
# In short: as §1
# [16] = biological target: Fuc(a1-2)[GalNAc(a1-3)]Gal(b1-4)Glc
# In short: as §1
# [17] = biological target: Fuc(a1-2)[GalNAc(a1-3)]Gal(b1-4)GlcNAc
# In short: as §1
# [18] = biological target: Fuc(a1-2)[GalNAc(a1-3)]Gal(b1-4)GlcNAc(b1-2)Man
# In short: as §1
# [19] = biological target: Fuc(a1-2)[GalNAc(a1-3)]Gal(b1-4)GlcNAc(b1-2)Man(a1-3)[Fuc(a1-2)[GalNAc(a1-3)]Gal(b1-4)GlcNAc(b1-2)Man(a1-6)]Man(b1-4)GlcNAc(b1-4)GlcNAc
# In short: as §1
# [20] = biological target: Fuc(a1-2)[GalNAc(a1-3)]Gal(b1-4)GlcNAc(b1-2)Man(a1-3)[Fuc(a1-2)[GalNAc(a1-3)]Gal(b1-4)GlcNAc(b1-2)Man(a1-6)]Man(b1-4)GlcNAc(b1-4)[Fuc(a1-6)]GlcNAc
# In short: as §1
# [21] = biological target: Fuc(a1-2)[GalNAc(a1-3)]Gal(b1-4)GlcNAc(b1-3)Gal(b1-4)GlcNAc
# In short: as §1
# [22] = biological target: Fuc(a1-2)[GalNAc(a1-3)]Gal(b1-4)GlcNAc(b1-3)Gal(b1-4)GlcNAc(b1-3)Gal(b1-4)GlcNAc
# In short: as §1
# [23] = biological target: Fuc(a1-2)[GalNAc(a1-3)]Gal(b1-4)GlcNAc(b1-3)GalNAc
# In short: as §1
# [24] = biological target: Fuc(a1-2)[GalNAc(a1-3)]Gal(b1-4)GlcNAc(b1-3)[Fuc(a1-2)[GalNAc(a1-3)]Gal(b1-4)GlcNAc(b1-6)]GalNAc
# In short: as §1
# [25] = biological target: Fuc(a1-2)[GalNAc(a1-3)]Gal(b1-4)GlcNAc(b1-6)GalNAc
# In short: as §1
# [26] = biological target: Fuc(a1-2)[GalNAc(a1-3)]Gal(b1-4)[Fuc(a1-3)]GlcNAc
# In short: as §1
# [27] = biological target: Fuc(a1-2)[GalNAc(a1-3)]Gal(b1-4)[Fuc(a1-3)]GlcNAc(b1-3)GalNAc
# In short: as §1
# [28] = biological target: Fuc(a1-2)[GalNAc(a1-4)]Gal(b1-4)GlcNAc
# In short: as §1
# [29] = biological target: Fuc(a1-2)[GalNAc(b1-3)]Gal
# In short: as §1
# [30] = biological target: Fuc(a1-3)GlcNAc
# In short: as §1
# [31] = biological target: Fuc(a1-3)[Gal(b1-4)]Glc6S
# In short: as §1
# [32] = biological target: Fuc(a1-3)[Gal(b1-4)]GlcNAc
# In short: as §1
# [33] = biological target: Fuc(a1-3)[Gal(b1-4)]GlcNAc(b1-2)Man
# In short: as §1
# [34] = biological target: Fuc(a1-3)[Gal(b1-4)]GlcNAc(b1-2)Man(a1-3)[Fuc(a1-3)[Gal(b1-4)]GlcNAc(b1-2)Man(a1-6)]Man(b1-4)GlcNAc(b1-4)GlcNAc
# In short: as §1
# [35] = biological target: Fuc(a1-3)[Gal(b1-4)]GlcNAc(b1-2)Man(a1-3)[Fuc(a1-3)[Gal(b1-4)]GlcNAc(b1-2)Man(a1-6)]Man(b1-4)GlcNAc(b1-4)[Fuc(a1-6)]GlcNAc
# In short: as §1
# [36] = biological target: Fuc(a1-3)[Gal(b1-4)]GlcNAc(b1-3)Gal(b1-3)[Fuc(a1-4)]GlcNAc
# In short: as §1
# [37] = biological target: Fuc(a1-3)[Gal(b1-4)]GlcNAc(b1-3)GalNAc
# In short: as §1
# [38] = biological target: Fuc(a1-3)[Gal(b1-4)]GlcNAc(b1-4)Gal(b1-4)[Fuc(a1-3)]GlcNAc
# In short: as §1
# [39] = biological target: Fuc(a1-3)[Gal(b1-4)]GlcNAc(b1-4)Gal(b1-4)[Fuc(a1-3)]GlcNAc(b1-4)Gal(b1-4)[Fuc(a1-3)]GlcNAc
# In short: as §1
# [40] = biological target: Fuc(a1-3)[Gal(b1-4)]GlcNAc(b1-6)GalNAc
# In short: as §1
# [41] = biological target: Fuc(a1-3)[Gal(b1-4)]GlcNAc(b1-6)[Gal(b1-3)GlcNAc(b1-3)]Gal(b1-4)Glc
# In short: as §1
# [42] = biological target: Fuc(a1-3)[Gal(b1-4)]GlcNAc6S
# In short: as §1
# [43] = biological target: Fuc(a1-3)[Gal3S(b1-4)]Glc
# In short: as §1
# [44] = biological target: Fuc(a1-3)[Gal3S(b1-4)]GlcNAc
# In short: as §1
# [45] = biological target: Fuc(a1-3)[Gal3S(b1-4)]GlcNAc6S
# In short: as §1
binder,measurement,setting,value
Pbx1CASH domain (Cryptococcus neoformans) (protein) MDETKPLWGNPRADGISLACKDSIVERNVVYDATDGAIVLFGSAGSTVKNNHVYARTRVILGGINLVDYEPWDGDYTNVKVHHNHLYALGRYFKVGIVIGPASWSDDTESVVHSASVTDNEFSGGYWGYGIVVASAKNFEVLRNKVIWDGEQGVARFSGVPGS,glycan array binding signal (z-score),[1],-0.277
same,glycan array binding signal (z-score),[2],0.23
same,glycan array binding signal (z-score),[3],1.25
same,glycan array binding signal (z-score),[4],-0.511
same,glycan array binding signal (z-score),[5],-0.053
same,glycan array binding signal (z-score),[6],1.43
same,glycan array binding signal (z-score),[7],0.034
same,glycan array binding signal (z-score),[8],-0.683
same,glycan array binding signal (z-score),[9],1.66
same,glycan array binding signal (z-score),[10],0.435
same,glycan array binding signal (z-score),[11],0.265
same,glycan array binding signal (z-score),[12],-0.508
same,glycan array binding signal (z-score),[13],-0.626
same,glycan array binding signal (z-score),[14],0.858
same,glycan array binding signal (z-score),[15],0.011
same,glycan array binding signal (z-score),[16],-0.564
same,glycan array binding signal (z-score),[17],-0.837
same,glycan array binding signal (z-score),[18],-0.653
same,glycan array binding signal (z-score),[19],-0.952
same,glycan array binding signal (z-score),[20],0.42
same,glycan array binding signal (z-score),[21],0.116
same,glycan array binding signal (z-score),[22],-0.185
same,glycan array binding signal (z-score),[23],0.711
same,glycan array binding signal (z-score),[24],-0.417
same,glycan array binding signal (z-score),[25],-0.246
same,glycan array binding signal (z-score),[26],-0.042
same,glycan array binding signal (z-score),[27],1.04
same,glycan array binding signal (z-score),[28],-0.628
same,glycan array binding signal (z-score),[29],-0.724
same,glycan array binding signal (z-score),[30],-0.88
same,glycan array binding signal (z-score),[31],-0.736
same,glycan array binding signal (z-score),[32],-0.439
same,glycan array binding signal (z-score),[33],0.21
same,glycan array binding signal (z-score),[34],0.368
same,glycan array binding signal (z-score),[35],-0.469
same,glycan array binding signal (z-score),[36],0.08
same,glycan array binding signal (z-score),[37],-0.322
same,glycan array binding signal (z-score),[38],0.019
same,glycan array binding signal (z-score),[39],-0.078
same,glycan array binding signal (z-score),[40],-0.382
same,glycan array binding signal (z-score),[41],-0.167
same,glycan array binding signal (z-score),[42],0.01
same,glycan array binding signal (z-score),[43],-0.572
same,glycan array binding signal (z-score),[44],0.094
same,glycan array binding signal (z-score),[45],-0.581

# Two entries picked at random from the list so far, as already listed:
binder,measurement,setting,value
Pbx1CASH domain (Cryptococcus neoformans) (protein) MDETKPLWGNPRADGISLACKDSIVERNVVYDATDGAIVLFGSAGSTVKNNHVYARTRVILGGINLVDYEPWDGDYTNVKVHHNHLYALGRYFKVGIVIGPASWSDDTESVVHSASVTDNEFSGGYWGYGIVVASAKNFEVLRNKVIWDGEQGVARFSGVPGS,glycan array binding signal (z-score),[29],-0.724
same,glycan array binding signal (z-score),[40],-0.382
